Test system: splenic murine T cells
Test: Murine T cells stimulated with αCD3/αCD28 in presence of UA
Format: cell-based
Details: T cells exposed 48 hours to UA vs DMSO
Description: Splenic murine T cells were isolated from mice aged 6-20 weeks by negative selection with EasySep mouse T cell isolation kit (Stem cell) according to the manufacturer's instructions. To monitor T cell proliferation, purified T cells were loaded with CellTrace Violet (C34557 ThermoFisher Scientific). T cell activation was initiated using αCD3/CD28 activation beads (11456D; ThermoFisher Scientific) at a ratio of 25 μl dynabeads per 0.5×106 T-cells. Cells were activated with 25-50 μM Urolithin A (Tocris) or DMSO in T cell activation Medium (RPMI (ThermoFisher Scientific) 10% FBS (South America origin), 10 mM Hepes (Sigma), 1×Non-Essential Amino Acid, 1 mM Sodium Pyruvate, 50 µM β-Mercaptoethanol, 100 U/mL penicillin, 100 μg/mL streptomycin and 2 mM Glutamax (ThermoFisher Scientific) for the indicated durations. In selected experiments, cells were stimulated in the presence of inhibitors, namely TCFli (ICG-001; SelleckChem; […]) and PGC-lai (SR-18292, Sigma-Aldrich; […]). For subsequent analysis, activating beads were magnetically removed prior antibody staining. For human T cells, peripheral blood mononuclear cells were purified with a Ficoll-Paque (GE healthcare) gradient. T cells were enriched with EasySep Human T Cell Isolation Kit (StemCell) and activated with dynabead Human T-Activator CD3/CD28 for T Cell Expansion and Activation Kit (11131D; ThermoFisher Scientific), similar to murine T cell stimulation. When the subsequent activation and expansion of CAR T cells was studied, plates were coated with 1 μg/mL anti-human CD3 (αCD3; clone OKT3) and thawed PBMC were cultivated with […] anti-human CD28 (αCD28; 15E8, both Miltenyi Biotec) containing media for three days. (NutriT media (4Cell® Nutri-T media (Sartorius) containing 0.5% penicillin/streptomycin) supplemented with IL-7 (25 U/mL) and IL-15 […] (all Miltenyi Biotec)).
Tumors were minced and digested with Tumor & Tissue Dissociation Reagent (BD Horizon) for 30 min. The remaining organ pieces were filtered through a 70 µm cell strainer. Cells were then washed with PBS 1% BSA and 2 mM EDTA. […]

Structure (SMILES): O=c1oc2cc(O)ccc2c2ccc(O)cc12 [UA, Urolithin A]
- downregulated genes: 413
- significantly upregulated genes: 765
- total number of differentially expressed genes (RNA sequencing): 1178

From patent publication US20240139149A1, “THERAPEUTIC USES OF UROLITHIN DERIVATIVES” (Vandria SA, priority 2022, published 2024)
